Measured values from PMC10806188.
These are yes or no findings as the source states them, for the method shown. In cells and extracts the contact can be indirect. Some entries that bind do so weakly or less than the wild type.

Sequences of proteins named here, by UniProt entry; tags and fusion partners are left off.
UniProt Q00987: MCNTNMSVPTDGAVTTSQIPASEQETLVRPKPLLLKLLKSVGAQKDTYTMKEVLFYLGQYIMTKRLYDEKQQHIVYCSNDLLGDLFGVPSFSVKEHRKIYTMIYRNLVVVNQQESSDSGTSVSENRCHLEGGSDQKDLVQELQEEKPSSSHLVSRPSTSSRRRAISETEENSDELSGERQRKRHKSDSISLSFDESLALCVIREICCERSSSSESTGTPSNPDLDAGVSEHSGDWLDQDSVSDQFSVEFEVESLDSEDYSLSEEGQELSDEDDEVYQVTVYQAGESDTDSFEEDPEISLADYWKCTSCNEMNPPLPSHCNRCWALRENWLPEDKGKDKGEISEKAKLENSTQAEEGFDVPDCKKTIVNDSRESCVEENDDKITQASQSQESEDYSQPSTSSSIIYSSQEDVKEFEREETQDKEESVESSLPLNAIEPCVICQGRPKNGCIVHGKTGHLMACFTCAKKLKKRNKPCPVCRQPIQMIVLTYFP
UniProt Q02880: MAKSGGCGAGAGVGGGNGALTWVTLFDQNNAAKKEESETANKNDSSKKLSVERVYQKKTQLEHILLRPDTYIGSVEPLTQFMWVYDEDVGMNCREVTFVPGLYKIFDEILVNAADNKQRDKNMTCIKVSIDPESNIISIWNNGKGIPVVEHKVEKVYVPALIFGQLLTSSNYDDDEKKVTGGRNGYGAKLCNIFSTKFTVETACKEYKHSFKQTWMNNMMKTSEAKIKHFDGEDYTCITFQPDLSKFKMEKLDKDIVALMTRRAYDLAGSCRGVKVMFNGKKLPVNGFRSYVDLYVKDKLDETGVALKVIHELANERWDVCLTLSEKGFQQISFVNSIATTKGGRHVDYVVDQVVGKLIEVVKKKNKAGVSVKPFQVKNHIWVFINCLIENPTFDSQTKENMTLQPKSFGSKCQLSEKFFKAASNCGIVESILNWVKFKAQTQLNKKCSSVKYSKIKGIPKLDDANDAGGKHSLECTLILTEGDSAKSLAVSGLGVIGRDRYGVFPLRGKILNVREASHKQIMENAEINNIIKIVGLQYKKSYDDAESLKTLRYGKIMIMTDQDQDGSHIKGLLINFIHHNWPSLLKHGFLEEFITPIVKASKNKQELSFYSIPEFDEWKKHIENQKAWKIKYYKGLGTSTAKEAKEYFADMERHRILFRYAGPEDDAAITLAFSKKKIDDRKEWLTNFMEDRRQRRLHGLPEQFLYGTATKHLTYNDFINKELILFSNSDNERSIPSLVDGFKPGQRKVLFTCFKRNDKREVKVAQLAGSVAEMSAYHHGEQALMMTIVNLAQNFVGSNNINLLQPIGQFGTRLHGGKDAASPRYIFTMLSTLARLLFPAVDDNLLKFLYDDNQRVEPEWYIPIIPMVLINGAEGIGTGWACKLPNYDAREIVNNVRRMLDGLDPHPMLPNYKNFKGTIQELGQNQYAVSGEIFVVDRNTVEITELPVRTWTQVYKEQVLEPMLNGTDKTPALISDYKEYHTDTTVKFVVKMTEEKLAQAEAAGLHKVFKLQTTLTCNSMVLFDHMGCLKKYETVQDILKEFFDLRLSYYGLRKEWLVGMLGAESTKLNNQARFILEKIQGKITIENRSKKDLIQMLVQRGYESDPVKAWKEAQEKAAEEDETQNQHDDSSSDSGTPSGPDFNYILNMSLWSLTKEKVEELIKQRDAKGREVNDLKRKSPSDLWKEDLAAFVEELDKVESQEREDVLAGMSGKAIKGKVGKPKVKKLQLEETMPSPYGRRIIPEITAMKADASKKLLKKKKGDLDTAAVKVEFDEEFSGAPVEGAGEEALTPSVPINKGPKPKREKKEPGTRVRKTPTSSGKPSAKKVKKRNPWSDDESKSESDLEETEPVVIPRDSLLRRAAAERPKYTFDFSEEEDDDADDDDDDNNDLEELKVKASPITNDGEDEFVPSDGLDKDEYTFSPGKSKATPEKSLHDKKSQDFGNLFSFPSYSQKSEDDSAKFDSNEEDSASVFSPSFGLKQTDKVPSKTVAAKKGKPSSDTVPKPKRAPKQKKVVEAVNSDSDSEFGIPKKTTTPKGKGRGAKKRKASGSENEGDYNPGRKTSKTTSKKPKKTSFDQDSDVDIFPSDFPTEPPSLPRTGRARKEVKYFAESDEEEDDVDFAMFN

Assays:
[1] = target: endogenous MDM2 (human (endogenous in HEK293, H1299, A549)) (UniProt Q00987); assay: co-IP; whole-cell lysates of H1299 and A549 cells; IP with MDM2 antibody or normal rabbit IgG, IB; cells untreated or treated with VP-16 and MG132 (20 μM) 5 h; A549 also with siRNA against p53
[2] = target: Flag-tagged MDM2 (UniProt Q00987); assay: co-IP; HEK293 cells transfected 48 h with the Flag plasmid; IP with FLAG beads, IB; cells untreated or treated with VP-16 and MG132 (20 μM) 5 h, with ICRF-193 (50 μM) and MG132 (20 μM) 5 h, or with vehicle
[3] = target: Flag-tagged TOP2β (human) (UniProt Q02880); assay: as above

Row | Substance | binding [1] | binding [2] | binding [3]
1 | endogenous TOP2β (from UniProt Q02880 1-1626) (enzyme) | binds | binds | –
2 | endogenous MDM2 (from UniProt Q00987 1-491) (enzyme) | – | – | binds
